{"source": "PubChem BioAssay AID1347076", "about": "(National Center for Advancing Translational Sciences (NCATS), 2019)", "note": "Out of some 400,000 compounds screened, about 13,000 (3.2%) were called active. Inconclusive results, whose numbers are uncertain, are shown with a selection of clear calls. The call rests on the fitted dose curve; in most records, active means well fitted cell-killing curve with a large enough effect; inconclusive means small, poorly fitted or top-dose-only effect, or effect the other way; inactive means flat fitted curve, though single readings scatter. A potency beside an inconclusive call is a rough fit, not a confirmed value. On the % scale 0 is the no-effect control and ±100 the full control effect; potency means the concentration at half of the fitted maximal effect."}
{"assay": "qHTS assay for MDR1-selective chemotherapeutics: Primary screen using the drug-selected MDR subline cells KB-V1; further: nearly all actives have a fitted effect of over 60% in size", "conditions": "KB-V1 MDR cells viability, CellTiter-Glo, 72 h; activity change, negative = cytotoxicity: at 46.1 µM (top of the series)", "summary_of_the_method": "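In this primary screen, KB-V1 cells overexpressing P-gp are incubated with library compounds (lowest to highest concentration) for 72 h at 37 degrees C before a luminescent ATP viability read.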"}
{"compound": "CCN(CC)S(=O)(=O)c1ccc(N2CCOCC2)c(NC(=O)c2ccc(NC(C)=O)cc2)c1", "Potency": "inactive"}
{"compound": "O=C(NCCc1ccncc1)Nc1ccccc1", "Potency": "inconclusive: 20.6 µM [rising, single point]"}
{"compound": "COc1ccc(NC(=O)c2cc3ccccc3o2)cn1", "Potency": "inconclusive: 9.2 µM [rising, single point]"}
{"compound": "COc1ccc(C(=O)NCC2CCCO2)cc1OC", "note": "(centres undefined)", "Potency": "inconclusive: 23.1 µM [rising, single point]"}
{"compound": "COc1ccc(-n2nc(C(=O)Nc3ccc(Cl)cn3)c3c4ccccc4n(C)c3c2=O)cc1Cl", "Potency": "inconclusive: 18.4 µM [rising, single point]"}
{"compound": "O=C(Nc1cc(C(=O)N2CCCC2)ccc1N1CCCC1)c1ccccc1F", "Potency": "active: 3.66 µM"}
{"compound": "CC(C)Cn1c2c(c(O)c(C(=O)Nc3nccs3)c1=O)CCCC2", "Potency": "active: 7.31 µM"}
{"compound": "C[C@]12CCC(=O)C=C1CCC1C2CC[C@@]2(C)C1CCC21OCCO1", "note": "(some centres undefined)", "Potency": "inconclusive: 14.6 µM [cytotoxic, partial curve, poor fit]"}
{"compound": "CC(=O)N/C(=C\\c1ccccc1)C(=O)OC/C=C/c1ccccc1", "Potency": "inactive"}
{"compound": "C/C(=N\\NC(=O)c1ccccc1N)c1ccc(NC(=O)Cc2ccccc2)cc1", "Potency": "inconclusive: 8.2 µM [cytotoxic, partial curve]"}
{"compound": "O=C1/C(=C\\c2c(NCCOCCO)nc3ccccn3c2=O)SC(=S)N1Cc1ccco1", "Potency": "inconclusive: 29.1 µM [rising, single point]"}
{"compound": "Cc1ccccc1-c1nc2cc(NC(=O)C3CC3)ccc2o1", "Potency": "inconclusive: 29.1 µM [cytotoxic, single point]"}
{"compound": "Cc1nc(N2CCN(Cc3ccc4c(c3)OCO4)CC2)nc2c1C(=O)CC(c1ccco1)C2", "note": "(centres undefined)", "Potency": "inconclusive: 5.8 µM [cytotoxic, partial curve, poor fit]"}
{"compound": "Cc1ccc(Nc2ccc([N+](=O)[O-])nc2[N+](=O)[O-])cc1", "Potency": "inactive"}
{"compound": "O=C(COC(=O)C1(c2ccc(Cl)cc2)CCCC1)NCc1ccco1", "Potency": "inconclusive: 18.4 µM [cytotoxic, single point]"}
{"compound": "COc1ccc(Br)cc1CN(C)C(=O)CNC(=O)c1ccc2ccccc2c1", "Potency": "inconclusive: 14.6 µM [cytotoxic, partial curve]"}
{"compound": "Cc1ccc(NC(=O)CSc2c3c(nc4ccccc24)CCCC3)cc1F", "Potency": "inactive"}
{"compound": "COc1ccc(CNC(=O)C2CCCN2S(=O)(=O)c2ccc(F)cc2)cc1", "note": "(centres undefined)", "Potency": "inconclusive: 29.1 µM [cytotoxic, single point]"}
{"compound": "Cc1nn(CC2CC2)c(=O)n1-c1cccc(Cl)c1", "Potency": "inactive"}
{"compound": "O=S(=O)(NCCc1ccccc1)c1ccc(Cl)nc1", "Potency": "inconclusive: 29.1 µM [cytotoxic, single point]"}
{"compound": "COc1cccc(NC(=O)c2cnc(NS(=O)(=O)c3ccccc3)nc2)c1", "Potency": "inactive"}
{"compound": "CC(C)C1C(=O)Nc2ccc(S(=O)(=O)NCc3ccc(Cl)cc3)cc21", "note": "(centres undefined)", "Potency": "inactive"}
{"compound": "C=CCn1c(SCC(=O)NCc2ccc3c(c2)OCO3)nc2scc(-c3ccccc3)c2c1=O", "Potency": "inconclusive: 29.1 µM [cytotoxic, single point]"}
{"compound": "Cc1cc(=O)n(CC(=O)Nc2ccc([N+](=O)[O-])cc2)c(-n2nc(C)cc2C)n1", "Potency": "inconclusive: 29.1 µM [cytotoxic, single point]"}
{"compound": "COc1cccc(CNC(=O)c2ccc(C)c(NC3=NC4CS(=O)(=O)CC4S3)c2)c1", "note": "(centres undefined)", "activity change, negative = cytotoxicity": "inconclusive: 52.4%"}
{"compound": "O=C(Nc1ccccn1)C1CCN(S(=O)(=O)c2cccc3nonc23)CC1", "Potency": "inconclusive: 18.4 µM [cytotoxic, single point]"}
{"compound": "COc1ccc(N2CCOCC2)c(NC(=O)COc2cccc(C)c2)c1", "Potency": "active: 13 µM"}
{"compound": "Cc1cc(C(F)(F)F)nn1-c1nc(-c2ccccc2)cc(C(F)(F)F)n1", "Potency": "inactive"}
{"compound": "O=C(Cc1cccc(NC(=O)C2CCN(C(=O)C3CCCCC3)CC2)c1)Nc1cccc(C(=O)N2CCCCC2)c1", "Potency": "inactive"}
{"compound": "CCCCN(CCCC)CCCOC(=O)c1ccc(N)cc1", "Potency": "inconclusive: 10.3 µM [cytotoxic, partial curve, poor fit]"}
{"compound": "Cc1cc(C)c(S(=O)(=O)N2CCCCC2)c(C)c1N(C)S(=O)(=O)c1ccc(Cl)cc1", "Potency": "inconclusive: 29.1 µM [cytotoxic, single point]"}
{"compound": "CN(C)S(=O)(=O)N1CCC(Oc2ccc(C(=O)N3C[C@@H]4CCC[C@H]3C4)cc2)CC1", "Potency": "active: 9.2 µM"}
{"compound": "CCN1C(=O)c2cccc3c(S(=O)(=O)Nc4ccccc4O)ccc1c23", "Potency": "inconclusive: 25.9 µM [cytotoxic, single point]"}
{"compound": "COc1ccccc1C(=O)Nc1ccc(NC(=O)C2CCCCC2)nc1", "Potency": "inconclusive: 2.59 µM [cytotoxic, full curve, poor fit]"}
{"compound": "COc1ccccc1CNC(=O)c1ccccc1OCc1ccc(F)cc1", "Potency": "inconclusive: 0.0046 µM [cytotoxic, full curve, poor fit]"}
{"compound": "Cc1[nH]c2ccccc2c1C(c1ccccc1)c1cccs1", "note": "(centres undefined)", "Potency": "inconclusive: 20.6 µM [cytotoxic, single point]"}
{"compound": "O=C(c1cccc(Cl)c1)N1CCCC(C(=O)N2CCN(c3ccccc3)CC2)C1", "note": "(centres undefined)", "Potency": "inconclusive: 7.31 µM [cytotoxic, partial curve]"}
{"compound": "Cc1ccc(C(=O)N[C@H](C(=O)NC2CCCCC2)C(C)C)cc1", "Potency": "active: 10.3 µM"}
{"compound": "Cc1cc(Sc2ccc(Cl)cc2)nc2ccccc12", "Potency": "inconclusive: 18.4 µM [rising, single point]"}
{"compound": "CC1(C(=O)NCc2cccs2)CCN1CCc1ccccc1", "note": "(centres undefined)", "Potency": "inconclusive: 20.6 µM [cytotoxic, partial curve, poor fit]"}
{"compound": "NC(=O)C1CC(=O)N(c2ccc(OCc3ccc(Cl)cc3)cc2)C1", "note": "(centres undefined)", "Potency": "inactive"}
{"compound": "COC(=O)c1cc(C#N)c(Oc2ccccc2OC)nc1C", "Potency": "inconclusive: 29.1 µM [cytotoxic, single point]"}
{"compound": "COc1ccc([C@H]2C(C(=O)O)=C[C@@H](C(C)(C)C)N2S(=O)(=O)c2ccccc2)cc1", "Potency": "inconclusive: 20.6 µM [rising, single point]"}
{"compound": "CCNc1nc(NCC)nc(SCCOc2ccc(C)cc2)n1", "Potency": "inconclusive: 20.6 µM [cytotoxic, single point]"}
